# Source: patent EP1620056B1, “TUMOR CYTOTOXICITY INDUCED BY MODULATORS OF THE CXCR4 RECEPTOR” (Morehouse School of Medicine, priority 2003, dated 2004)
# Not every detail of the peptide structures is certain; ends, links or a residue may be inferred. Where no end group is shown, it is not given here.
# Tested on: epithelial tumor cell lines
# Assay: Apoptotic assay of Gp 120 and Nef peptides
# Assay type: cell-based, human
# Details: for apoptotic properties of the sequence: peptide sequences within Nef or Gp 120
# Text: The nef protein was expressed and purified in the inventors' laboratory. overlapping 20 mer peptides encompassing the entire nef protein and overlapping 15 mer peptides encompassing the entire Gp 120 protein were obtained from the NIH AIDS Research & Reference Reagent Program (McKesson HBC Bio-Services, MD) Other specific peptides designed from within Gp 120 or nef were obtained from SigmaGenosys.
# Apoptosis generates DNA free ends which can be labeled in situ using terminal deoxynucleotidyl-transferase (TdT), incorporating an exogenously added labeled nucleotide to the DNA strand. This label can then be visualized directly by fluorescence or indirectly using anti-FITC-peroxidase, and a colorimetric assay. Cells on coverslips were washed with PBS, and fixed for 30 minutes at RT with 4% paraformaldehyde, in PBS, pH 7.4. They were then washed with PBS, and permeabilized with 0.1% Triton X-100 for 10 minutes at room temperature (RT). The slides were rinsed twice with PBS, and air dried for 2 minutes. The manufacturer's procedure for TUNEL staining the slides was followed (manufacturer's procedure for the In Situ Cell Death Detection Kit, AP; Boehringer Mannheim, Indianapolis, IN). Total cell counts were determined by counterstaining fixed cultures with 20 µg/ml of Hoechst 33258. All specimens were observed by epifluorescence on a computer-controlled microscope system based on a Zeiss Axioskop microscope (Carl Zeiss, Thornwood, NY), and the images were obtained and examined using a charged coupled device (CCD) camera, MagnaFire, model S99806 (Olympus American, Melville, NY). Images were examined using Image-Pro Plus 4.1 for Windows (Media Cybernetics, Silver Springs, MD) software.
# Overlapping peptide sets obtained from the AIDS Reagent Bank were used in the apoptotic assay as disclosed above. Specific pg 120 and Nef peptides within those sets were identified as inducing apoptosis in epithelial tumor cell lines, as well as in HUVECs. Alternatively, these same peptides had no effect in primary mammary epithelium or in MDA-MB-468 tumor lines.
substance,measurement,setting,value
NAACAWLEAQ [NAACAWLEAQ],apoptosis relative to that observed for the full Nef protein,equivalent molar ratio (10 mer peptide is 5% the amount of the full protein),~100%
same,apoptotic properties of the sequence,,found to have apoptotic/modulator properties
GRAFYTT [GRAFYTT],apoptotic properties of the sequence,,apoptosis-inducing motif
